Library screen at single concentrations

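Whole-parasite assay of Trypanosoma brucei over 72 hours; the read-out is not stated. Concentration: 30 µM. The record gives no direction; compounds that gave an IC50 in retests scored well above the rest, so higher reads as stronger inhibition. Values scatter widely below zero; nearly all retest evidence comes from the higher of the two concentrations used. Size under these conditions: about 64,000 compounds, about 940 of them at 50% or above in at least one test.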

Values are the deposited “Percent Effect”, in %.
How 0% and 100% were set is not recorded. Most values in the screen are low, and negative values occur.
The compounds are a random part of those screened.

* Cn1cc(CN2CCC(c3cc(COc4ccc(Cl)cc4)[nH]n3)C2)cn1 (centres unmarked) : 41.85%
* Cc1cccnc1NC(=O)c1ccc(-n2cncn2)nn1 : -10.84%
* Cc1nsc(N2CCN(C(=O)Nc3ccc4[nH]ccc4c3)CC2)n1 : -15.27%
* OCCCN1CCc2onc(C(c3ccccc3)c3ccccc3)c2C1 : 6.304%
* O=C(C1CCS(=O)(=O)CC1)N1CCC(Cc2ccc(F)cc2)CC1 : -22.66%
* CN1CCC(N(CCc2ccccc2)C(=O)c2ccc(CO)cc2)CC1 : -12.58%
* COc1ccc(CN(C)C(=O)NC(C)c2nncn2C)cc1F (centres unmarked) : -14.79%
* Cc1ncoc1C(=O)N1CCOC(Cc2ccccc2)C1 (centres unmarked) : -70.89%
* Cc1nnc(-c2cccc(N3CCC(NC4CCSC4)CC3)c2)s1 (centres unmarked) : 12.77%
* CC(C)[C@H]1CN(S(=O)(=O)c2cccnc2)C[C@@H]1N : 19.98%
* Cc1nnc2n1CCN(C(=O)c1cn(-c3ccccc3Cl)nn1)C2 : 5.874%
* Cc1noc(C)c1S(=O)(=O)NC(=O)COc1cccc(C(C)C)c1 : -10.22%
* CCc1nc(C#N)c(N2CCC(c3nc(-c4ccccc4)no3)CC2)o1 : -6.938%
* COCC(c1ccccn1)N(C)C(=O)c1cc(-c2ccc(O)cc2)n[nH]1 (centres unmarked) : -28.79%
* COc1ccc(CNC(=O)N(C)CC(C)(C)O)cc1OC : -31.23%
* Cc1cccc2c1cnn2CCCNC(=O)c1ccnn1C : 3.755%
* CSCc1cc(C(=O)NC2(C#N)CCSC2)ccc1F (centres unmarked) : -7.238%
* CCC1C(=O)NCCN1c1nccc(C)n1 (centres unmarked) : -14.11%
* O=C(O)c1ccccc1-c1ccc(CN2CCOCC2)cn1 : -10.04%
* O=C(NCC1CC1)C1CN(C(=O)NC2CCCC2)Cc2cncn2C1 (centres unmarked) : 4.887%
* COc1cc(C)sc1C(=O)N1CC(c2cccnc2)C1 : -15.49%
* [H][C@@]12CS(=O)(=O)C[C@]1([H])N(C(=O)c1cnc(C)nc1)CCN2CCC : -22.39%
* O=C(O)C(F)(F)F.[H][C@@]12CN(C(=O)c3ccncc3F)C[C@]1([H])OCCN2C : -40.35%
* COc1ccc(OC)c([C@@H]2N[C@H](c3nccs3)Cc3ccsc32)c1 : 15.15%
* Cn1ccnc1CN1C[C@@H](CN2CCCC2)[C@@H](CO)C1 : 25.63%
* COCCN(C)C[C@@H]1CN(C(=O)c2sc3ccccc3c2C)C[C@@H]1CO : -3.345%
* O=C(O)C(F)(F)F.[H][C@@]12CC(=O)N(CC(=O)N(C)C)[C@@]1([H])CCN2Cc1cccc(C#N)c1 : -180.8%
* NC(=O)C1CCCN1Cc1ccccc1NC(=O)CC(F)(F)F (centres unmarked) : -9.058%
* CCc1cccc(CC)c1NC(=O)c1ccccc1N(C)S(C)(=O)=O : -49.66%
* COC(=O)C1(NCC(=O)Nc2cc(C)ccc2OC)CCCCC1 : -0.421%
* Cc1cc(NS(=O)(=O)CC2CCCCO2)ccc1F (centres unmarked) : -21.7%
* COc1ccc(CC(=O)NCC(O)c2sccc2C)cc1OC (centres unmarked) : -15.71%
* CCOc1ccc(CN2CC[C@](C)(O)C(C)(C)C2)cn1 : -2.013%
* CCc1noc(CC)c1CC(=O)N1CCN(C(=O)C2CCCC2)CC1 : 5.207%
* COCC(=O)N1CCCC1c1nccnc1Nc1nc(C)cs1 (centres unmarked) : -10.21%
* Cc1cc(CN2CCN(C(=O)Nc3cccnc3)CC2)on1 : -16.99%
* Cc1ncsc1CN1CCN(C2CCOCC2)CC(C(N)=O)C1 (centres unmarked) : -14.3%
* O=C(c1ccc(-n2ccnc2)cc1)N1CCCC1 : -51.4%
* Cn1cnc2c1CCN(Cc1csc(-c3ccccc3F)n1)C2 : 21.88%
* Cn1nc(C2CN(S(C)(=O)=O)C2)c2nccnc21 : -13.14%
* O=C(O)c1cccnc1CN1CCCCC1CCc1cccs1 (centres unmarked) : -10.77%
* O=C(O)C(F)(F)F.[H][C@@]12CN(C(=O)N3CCCC3)C[C@]1([H])OCCN2Cc1c(C)noc1C : 5.703%
* CN(C)c1cc(CNC(=O)Nc2cccnc2N2CCCC2)ccn1 : -25.61%
* CN(Cc1ccc(Cl)s1)C(=O)c1cccc(OCC(N)=O)c1 : -12.66%
* Cc1ccc(S(=O)(=O)c2ncccc2CN2CCCCC2)cc1 : -28.72%
* CC(C)(C)CC(=O)NS(=O)(=O)c1ccc(F)cc1C(F)(F)F : -1.893%
* c1cc(-c2ccc(CN3CCC4(CCNCC4)CC3)s2)[nH]n1 : -115.3%
* Cn1cc(C2CC(=O)NC23CCN(Cc2cccc(F)c2)CC3)cn1.O=C(O)C(F)(F)F (centres unmarked) : -5.502%
* CC(C)N1CCOCC2(CCCN(C(=O)CCc3cccnc3)C2)C1.O=C(O)C(F)(F)F (centres unmarked) : 0.2489%
* CCCS(=O)(=O)N1CCOC2(CCCN(Cc3ccccn3)C2)C1.O=C(O)C(F)(F)F (centres unmarked) : -46.67%
* CC(C)CNC(=O)Nc1cccc(CN2CCOC2=O)c1 : -21.71%
* CC(c1ccc(-n2cncn2)cc1)N(C)Cc1ccccn1 (centres unmarked) : -1.31%
* O=C(c1ccc2c(c1)OCO2)N1CCCC(Nc2ccc(F)cc2)C1 (centres unmarked) : -9.621%
* Cc1cnn(CCNCC(O)COc2cccc(C(F)(F)F)c2)c1 (centres unmarked) : -7.814%
* CCN(C)C(=O)CCC(=O)c1cccs1 : -40.93%
* COc1ccc2c(c1)OCC(Cc1cncc(N)c1)C2 (centres unmarked) : -11.41%
* CC(NC(=O)N1CCS(=O)(=O)CC1)c1c(F)cccc1Cl (centres unmarked) : -28.47%
* [H][C@@]12C[C@H](C(=O)NC3CCC3)[C@@]([H])(CN(C(=O)Nc3ccc(F)cc3)C1)O2 : -4.678%
* O=c1c2cc3c(cc2nnn1Cc1ccccc1)OCCO3 : 2.597%

The first 5 entries again:

* Cn1cc(CN2CCC(c3cc(COc4ccc(Cl)cc4)[nH]n3)C2)cn1 (centres unmarked) | 41.85%
* Cc1cccnc1NC(=O)c1ccc(-n2cncn2)nn1 | -10.84%
* Cc1nsc(N2CCN(C(=O)Nc3ccc4[nH]ccc4c3)CC2)n1 | -15.27%
* OCCCN1CCc2onc(C(c3ccccc3)c3ccccc3)c2C1 | 6.304%
* O=C(C1CCS(=O)(=O)CC1)N1CCC(Cc2ccc(F)cc2)CC1 | -22.66%

Source: ChEMBL document CHEMBL3988442, “University of Dundee, Small-Polar-MMV Screening Library” (2021).